In PubChem BioAssay AID445 (National Center for Advancing Translational Sciences (NCATS), 2006):
The other results are listed elsewhere or left out. Shown are side measurements of this screen, not its main read-out; they come without a call. Compounds called inactive in the main read-out are mostly missing here. Potencies come from curve fits of mixed quality, noted in brackets.

assay: IkB Signaling; settings: ABC-DLBCL IkBa-CBG/CBR dual luciferase ratio (green luciferase fused to IkBa over red control in OCI-Ly3 lymphoma cells), 4 h; measured here: control luc red channel unless noted
Method in brief: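 In this assay, an IκBα–CBG68 fusion accumulates when IKK-driven degradation is blocked; native CBR normalizes for cell number. OCI-Ly3 cells were treated 4 h with compound and doxycycline, then green and red light read after Chroma-Glo addition.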

Row | SMILES | AC50
1 | O=C(c1cnc(N2CCN(c3ncccn3)CC2)c2ccccc12)N1CCN(c2ccccn2)CC1 | 5.01 µM [falling, partial curve]
2 | COC(=O)c1ccc(NC(=O)c2ccc3c(c2)OCO3)cc1 | 6.31 µM [falling, partial curve]
3 | N#Cc1ccsc1NC(=O)COc1ccc(-c2nnco2)cc1 | 15.8 µM [falling, single point]
4 | O=C(NCc1ccccc1)c1ccc2c(c1)CCN2S(=O)(=O)c1ccc(Cl)cc1 | 25.1 µM [falling, single point]
5 | CCOc1ccc(NC(=O)CSC(N)=O)cc1 | 3.16 µM [rising, full curve, poor fit] [measured here: IkB-luc green channel]
6 | CN1CCN(CCc2ccc(Cl)c(Cl)c2)CC1 | 1.26 µM [rising, full curve]
7 | COc1ccc2cc3c(N)nn(C(=O)c4ccccc4Cl)c3nc2c1 | 3.98 µM [falling, partial curve]
8 | COc1ccc(-c2noc(CN(C(=O)C(C)Oc3ccc(C)cc3)C(C)C)n2)cc1 (stereo not drawn) | 31.6 µM [falling, partial curve]
9 | Cc1cccc(CCNC(=O)c2cc3c(s2)-c2c(C)cccc2OC3)c1 | 0.158 µM [falling, full curve, poor fit]
10 | Cc1ccc2c(c1)N(C(=O)Nc1cccc3c1CCCC3)CCO2 | 0.126 µM [falling, full curve, poor fit]
11 | CCCN1CCN(C(=O)Cn2c(-c3cccs3)cc3cc(F)ccc32)CC1 | 25.1 µM [falling, partial curve]
12 | O=C(NCCc1ccccc1)c1ccc(Nc2nc3ccccc3n3nnnc23)cc1 | 10 µM [falling, partial curve]
13 | COc1ccc(-c2noc(CSc3nnc(C)n3-c3cccc(C)c3)n2)cc1 | 20 µM [falling, single point]
14 | COc1cc(C(=O)NCCc2csc(-c3ccc(Cl)cc3)n2)cc(OC)c1OC | 15.8 µM [falling, partial curve]
15 | COc1ccc(O)c(C2=Nc3ccccc3N=C(c3ccccc3)C2)c1 | 10 µM [falling, partial curve]
16 | CCOC(=O)c1nc(Nc2ccc(C(=O)OC(C)C)cc2)c2ccccc2n1 | 12.6 µM [falling, partial curve]
17 | COc1ccccc1NC(=O)c1oc2ccccc2c1NC(=O)Cc1ccccc1 | 39.8 µM [falling, partial curve]
18 | CC(O)Cc1nsc(NC(=O)c2cccs2)n1 (stereo not drawn) | 20 µM [falling, single point]
19 | O=C(CN1C(=O)CC(c2ccccc2)=Nc2ccccc21)Nc1ccc(Br)cc1 | 7.94 µM [falling, full curve, poor fit]
20 | COc1cc(NC(=O)Cc2nn(C)c(=O)c3ccccc23)cc(OC)c1 | 12.6 µM [falling, partial curve]
21 | Oc1ccccc1Nc1nc2ccccc2n2nnnc12 | 0.316 µM [falling, full curve]

Row | SMILES | AC50
22 | COc1ccc(-c2[nH]ncc2-c2ccc3c(c2)OCCO3)c(O)c1 | 3.16 µM [falling, partial curve]
23 | COc1ccc(-c2cnc(SCC(=O)Nc3cc(C)on3)n2Cc2ccco2)cc1 | 12.6 µM [falling, partial curve]
24 | O=C(Cn1c(=O)n(Cc2nc(-c3ccccc3)no2)c(=O)c2ccccc21)Nc1cccc(Cl)c1 | 3.16 µM [falling, full curve]
25 | Cc1ccc(C)c(Nc2nnc(-c3ccc(C)c(S(=O)(=O)NCC4CCCO4)c3)c3ccccc23)c1 (stereo not drawn) | 20 µM [falling, partial curve]
26 | CCOc1ccc(N2C(=O)c3[nH]nc(-c4ccc(OC)cc4)c3C2c2cccs2)cc1 (stereo not drawn) | 20 µM [falling, partial curve]
27 | COc1ccccc1CN(Cc1cc2cc(C)ccc2[nH]c1=O)Cc1nnnn1CC1CCCO1 (stereo not drawn) | 7.94 µM [falling, full curve]
28 | Cc1cccc(NC(=O)CN2CCCN(S(=O)(=O)c3ccc(Br)s3)CC2)c1 | 12.6 µM [falling, partial curve]
29 | CN(C)CCC(=O)[C@@]1(O)CC[C@H]2[C@H]3CC=C4C[C@@H](O)CC[C@]4(C)[C@H]3CC[C@]21C | 6.31 µM [rising, partial curve] [measured here: IkB-luc green channel]
30 | O=C(NCCC1=CCCCC1)C1CCN(C(=O)N2CCOc3ccc(Cl)cc32)CC1 | 25.1 µM [falling, single point]
31 | COc1ccccc1C1C=C(c2ccc(C(C)C)cc2)Nc2nnnn21 (stereo not drawn) | 25.1 µM [falling, partial curve]
32 | Fc1ccc(-n2ncc3c(Nc4cccc(Cl)c4)ncnc32)cc1 | 15.8 µM [falling, partial curve]
33 | COc1cc(OC)cc(-c2nc3nc(C)c(CCC(=O)Nc4ccc(C)cc4C)c(C)n3n2)c1 | 20 µM [falling, single point]
34 | COc1ccc(C(=O)COC(=O)CN2CC(=O)Oc3ccccc32)cc1Br | 2.51 µM [falling, partial curve]
35 | CCN(CC)S(=O)(=O)c1ccc(C(=O)Nc2nc3ccc(Cl)cc3s2)cc1 | 0.794 µM [falling, full curve]
36 | CC1=CCC(Cc2nc3ccccc3o2)C1(C)C (stereo not drawn) | 5.01 µM [falling, partial curve]
37 | O=C1CCc2cc(S(=O)(=O)NCc3ccccc3Cl)cc3c2N1CC3 | 31.6 µM [falling, partial curve, poor fit]
38 | CN(C)c1cccc(C(=O)Nc2cccc(F)c2)c1 | 20 µM [falling, partial curve]
39 | c1cncc(-c2nc(-c3ccco3)cs2)c1 | 39.8 µM [falling, single point]
40 | COc1cc(C(=O)N2CCN(c3ncnc4sc(C)c(C)c34)CC2)cc(OC)c1OC | 12.6 µM [falling, partial curve]
41 | O=C(CCn1ccc2cc(S(=O)(=O)N3CCCC3)ccc21)NCc1ccccc1F | 12.6 µM [falling, single point]
42 | CCn1nc(C)c2c(-c3ccccc3)cc(=O)n(C(C)C(=O)NCc3ccccc3OC)c21 (stereo not drawn) | 39.8 µM [falling, single point]

Row | SMILES | AC50
43 | COc1cccc(NC(=O)c2oc3ccccc3c2NC(=O)C2CCCCC2)c1 | 25.1 µM [falling, single point]
44 | COc1ccc(C(=O)/C=C/c2cn(CC(O)CN3CCc4ccccc43)c3ccccc23)cc1 (stereo not drawn) | 6.31 µM [falling, partial curve]
45 | CCCC(C(=O)NC1CCCC1)N(Cc1cccs1)C(=O)c1snc(C(N)=O)c1N (stereo not drawn) | 25.1 µM [falling, partial curve] [measured here: IkB-luc green channel]
46 | CCc1ccccc1NC(=O)CSc1nc2n[nH]c(C)c2c(=N)n1-c1ccc(OC)cc1 | 25.1 µM [falling, partial curve]
47 | CC(C)CC(=O)Nc1nnc(S(=O)(=O)N(CC(C)C)c2ccccc2)s1 | 0.0501 µM [rising, full curve]
48 | Cc1ccc(CNC(=O)CCC(=O)N2CC3CCCN3c3ccccc32)cc1 (stereo not drawn) | 12.6 µM [falling, partial curve]
49 | CN(C)c1cccc(C(=O)NC2CCCCCC2)c1 | 12.6 µM [falling, partial curve]
50 | Cc1cc(C)c(S(=O)(=O)NCCc2cc3ccc(C)c(C)c3[nH]c2=O)c(C)c1 | 31.6 µM [falling, partial curve]
51 | O=c1c2sc3ccccc3c2n(Cc2cccc(Cl)c2)c(=O)n1Cc1ccco1 | 7.94 µM [falling, full curve, poor fit]
52 | Cc1ccccc1OCCn1c(=N)n(C(C)C)c2ccccc21 | 31.6 µM [falling, single point]
53 | Fc1ccc(-n2ncc3c(NC4CCCCCC4)ncnc32)cc1 | 3.98 µM [falling, partial curve]
54 | Cc1cc(C)nc(NS(=O)(=O)c2ccc(NC(=O)c3ccc4c(c3)OCO4)cc2)n1 | 3.16 µM [falling, partial curve]
55 | O=C(CCc1ccccc1)NCc1nc2cccnc2n1Cc1ccc(F)cc1 | 39.8 µM [falling, single point]
56 | CCOC(=O)N1CCc2c(sc3c2c(=O)n(-c2ccccc2)c(=O)n3CC(=O)Nc2ccc(OC)cc2OC)C1 | 0.158 µM [falling, full curve, poor fit]
57 | CCOc1ccc(OCC)c(NC(=O)c2cc(S(=O)(=O)N3CCCC3)cn2C)c1 | 6.31 µM [rising, single point]
58 | c1ccc(COc2ccc(OCCOCCn3cncn3)cc2)cc1 | 12.6 µM [falling, single point]
59 | CCc1ccccc1N1CC(c2nc3ccccc3n2CCCOc2ccc(Cl)cc2)CC1=O (stereo not drawn) | 7.94 µM [falling, partial curve]
60 | COc1ccc(CCNC(=O)CCc2c(C)nc3c(c(C)nn3-c3ccc(C)c(C)c3)c2C)cc1OC | 12.6 µM [falling, single point]
61 | Cc1cc(C(=O)COc2ccc(-c3nnco3)cc2)c(C)n1Cc1ccccc1 | 20 µM [falling, partial curve]
62 | COc1ccccc1OCCSc1nc(-c2ccc(C(C)(C)C)cc2)nc2cc(=O)[nH]n12 | 39.8 µM [falling, single point]
63 | COCCNC(=O)C(C#N)c1nc2ccccc2nc1N1CCCCCC1 (stereo not drawn) | 7.94 µM [falling, partial curve]

Laid out differently: results already given

| Row | SMILES | AC50 |
| --- | --- | --- |
| 47 | CC(C)CC(=O)Nc1nnc(S(=O)(=O)N(CC(C)C)c2ccccc2)s1 | 0.0501 µM [rising, full curve] |
| 48 | Cc1ccc(CNC(=O)CCC(=O)N2CC3CCCN3c3ccccc32)cc1 (stereo not drawn) | 12.6 µM [falling, partial curve] |
| 49 | CN(C)c1cccc(C(=O)NC2CCCCCC2)c1 | 12.6 µM [falling, partial curve] |
| 50 | Cc1cc(C)c(S(=O)(=O)NCCc2cc3ccc(C)c(C)c3[nH]c2=O)c(C)c1 | 31.6 µM [falling, partial curve] |
| 51 | O=c1c2sc3ccccc3c2n(Cc2cccc(Cl)c2)c(=O)n1Cc1ccco1 | 7.94 µM [falling, full curve, poor fit] |
